Source: paper PMC3946611, “hCLE/C14orf166 Associates with DDX1-HSPC117-FAM98B in a Novel Transcription-Dependent Shuttling RNA-Transporting Complex” (PLoS ONE, 2014)

T1: hCLE-TAP tagged protein, purified as hCLE-CBD (human) (UniProt Q9Y224)
T1 sequence: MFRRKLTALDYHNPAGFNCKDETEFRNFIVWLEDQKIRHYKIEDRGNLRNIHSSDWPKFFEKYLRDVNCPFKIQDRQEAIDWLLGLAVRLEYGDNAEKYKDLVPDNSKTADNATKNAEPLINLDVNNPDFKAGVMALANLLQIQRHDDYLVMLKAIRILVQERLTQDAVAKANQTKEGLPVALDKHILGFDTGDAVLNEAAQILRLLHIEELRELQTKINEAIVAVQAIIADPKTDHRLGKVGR


What follows are binders tested against T1, hCLE-TAP tagged protein, purified as hCLE-CBD (human) (assay: affinity purification with mass spectrometry; TAP purification of hCLE-TAP from cytosolic extracts of transfected HEK293T cells (150 mM NaCl); LC-MS/MS; TAP alone as control).

| binding | Binder |
| --- | --- |
| binds | Golgin subfamily A member 3 (protein, UniProt Q08378 1-1498) MDGASAEQDGLQEDRSHSGPSSLPEAPLKPPGPLVPPDQQDKVQCAEVNRASTEGESPDGPGQGGLCQNGPTPPFPDPPSSLDPTTSPVGPDASPGVAGFHDNLRKSQGTSAEGSVRKEALQSLRLSLPMQETQLCSTDSPLPLEKEEQVRLQARKWLEEQLKQYRVKRQQERSSQPATKTRLFSTLDPELMLNPENLPRASTLAMTKEYSFLRTSVPRGPKVGSLGLPAHPREKKTSKSSKIRSLADYRTEDSNAGNSGGNVPAPDSTKGSLKQNRSSAASVVSEISLSPDTDDRLENTSLAGDSVSEVDGNDSDSSSYSSASTRGTYGILSKTVGTQDTPYMVNGQEIPADTLGQFPSIKDVLQAAAAEHQDQGQEVNGEVRSRRDSICSSVSLESSAAETQEEMLQVLKEKMRLEGQLEALSLEASQALKEKAELQAQLAALSTKLQAQVECSHSSQQRQDSLSSEVDTLKQSCWDLERAMTDLQNMLEAKNASLASSNNDLQVAEEQYQRLMAKVEDMQRSMLSKDNTVHDLRQQMTALQSQLQQVQLERTTLTSKLKASQAEISSLQSVRQWYQQQLALAQEARVRLQGEMAHIQVGQMTQAGLLEHLKLENVSLSQQLTETQHRSMKEKGRIAAQLQGIEADMLDQEAAFMQIQEAKTMVEEDLQRRLEEFEGERERLQRMADSAASLEQQLEQVKLTLLQRDQQLEALQQEHLDLMKQLTLTQEALQSREQSLDALQTHYDELQARLGELQGEAASREDTICLLQNEKIILEAALQAAKSGKEELDRGARRLEEGTEETSETLEKLREELAIKSGQVEHLQQETAALKKQMQKIKEQFLQQKVMVEAYRRDATSKDQLISELKATRKRLDSELKELRQELMQVHGEKRTAEAELSRLHREVAQVRQHMADLEGHLQSAQKERDEMETHLQSLQFDKEQMVAVTEANEALKKQIEELQQEARKAITEQKQKMRRLGSDLTSAQKEMKTKHKAYENAVGILSRRLQEALAAKEAADAELGQLRAQGGSSDSSLALHERIQALEAELQAVSHSKTLLEKELQEVIALTSQELEESREKVLELEDELQESRGFRKKIKRLEESNKKLALELEHEKGKLTGLGQSNAALREHNSILETALAKREADLVQLNLQVQAVLQRKEEEDRQMKHLVQALQASLEKEKEKVNSLKEQVAAAKVEAGHNRRHFKAASLELSEVKKELQAKEHLVQKLQAEADDLQIREGKHSQEIAQFQAELAEARAQLQLLQKQLDEQLSKQPVGNQEMENLKWEVDQKEREIQSLKQQLDLTEQQGRKELEGLQQLLQNVKSELEMAQEDLSMTQKDKFMLQAKVSELKNNMKTLLQQNQQLKLDLRRGAAKTRKEPKGEASSSNPATPIKIPDCPVPASLLEELLRPPPAVSKEPLKNLNSCLQQLKQEMDSLQRQMEEHALTVHESLSSWTPLEPATASPVPPGGHAGPRGDPQRHSQSRASKEGPGE |
| binds | Ribosomal biogenesis protein LAS1L (protein, UniProt Q9Y4W2 1-734) MSWESGAGPGLGSQGMDLVWSAWYGKCVKGKGSLPLSAHGIVVAWLSRAEWDQVTVYLFCDDHKLQRYALNRITVWRSRSGNELPLAVASTADLIRCKLLDVTGGLGTDELRLLYGMALVRFVNLISERKTKFAKVPLKCLAQEVNIPDWIVDLRHELTHKKMPHINDCRRGCYFVLDWLQKTYWCRQLENSLRETWELEEFREGIEEEDQEEDKNIVVDDITEQKPEPQDDGKSTESDVKADGDSKGSEEVDSHCKKALSHKELYERARELLVSYEEEQFTVLEKFRYLPKAIKAWNNPSPRVECVLAELKGVTCENREAVLDAFLDDGFLVPTFEQLAALQIEYEDGQTEVQRGEGTDPKSHKNVDLNDVLVPKPFSQFWQPLLRGLHSQNFTQALLERMLSELPALGISGIRPTYILRWTVELIVANTKTGRNARRFSAGQWEARRGWRLFNCSASLDWPRMVESCLGSPCWASPQLLRIIFKAMGQGLPDEEQEKLLRICSIYTQSGENSLVQEGSEASPIGKSPYTLDSLYWSVKPASSSFGSEAKAQQQEEQGSVNDVKEEEKEEKEVLPDQVEEEEENDDQEEEEEDEDDEDDEEEDRMEVGPFSTGQESPTAENARLLAQKRGALQGSAWQVSSEDVRWDTFPLGRMPGQTEDPAELMLENYDTMYLLDQPVLEQRLEPSTCKTDTLGLSCGVGSGNCSNSSSSNFEGLLWSQGQLHGLKTGLQLF |
| binds | Syntaxin-18 (protein, UniProt Q9P2W9 1-335) MAVDITLLFRASVKTVKTRNKALGVAVGGGVDGSRDELFRRSPRPKGDFSSRAREVISHIGKLRDFLLEHRKDYINAYSHTMSEYGRMTDTERDQIDQDAQIFMRTCSEAIQQLRTEAHKEIHSQQVKEHRTAVLDFIEDYLKRVCKLYSEQRAIRVKRVVDKKRLSKLEPEPNTKTRESTSSEKVSQSPSKDSEENPATEERPEKILAETQPELGTWGDGKGEDELSPEEIQMFEQENQRLIGEMNSLFDEVRQIEGRVVEISRLQEIFTEKVLQQEAEIDSIHQLVVGATENIKEGNEDIREAIKNNAGFRVWILFFLVMCSFSLLFLDWYDS |
| binds | Rab11 family-interacting protein 5 (protein, UniProt Q9BXF6 1-653) MALVRGAEPAAGPSRWLPTHVQVTVLRARGLRGKSSGAGSTSDAYTVIQVGREKYSTSVVEKTHGCPEWREECSFELPPGALDGLLRAQEADAGPAPWAASSAAACELVLTTMHRSLIGVDKFLGQATVALDEVFGAGRAQHTQWYKLHSKPGKKEKERGEIEVTIQFTRNNLSASMFDLSMKDKPRSPFSKIRDKMKGKKKYDLESASAILPSSAIEDPDLGSLGKMGKAKGFFLRNKLRKSSLTQSNTSLGSDSTLSSASGSLAYQGPGAELLTRSPSRSSWLSTEGGRDSAQSPKLFTHKRTYSDEANQMRVAPPRALLDLQGHLDAASRSSLCVNGSHIYNEEPQGPVRHRSSISGSLPSSGSLQAVSSRFSEEGPRSTDDTWPRGSRSNSSSEAVLGQEELSAQAKVLAPGASHPGEEEGARLPEGKPVQVATPIVASSEAVAEKEGARKEERKPRMGLFHHHHQGLSRSELGRRSSLGEKGGPILGASPHHSSSGEEKAKSSWFGLREAKDPTQKPSPHPVKPLSAAPVEGSPDRKQSRSSLSIALSSGLEKLKTVTSGSIQPVTQAPQAGQMVDTKRLKDSAVLDQSAKYYHLTHDELISLLLQRERELSQRDEHVQELESYIDRLLVRIMETSPTLLQIPPGPPK |

Second part, the binder before the results:

| Binder | binding |
| --- | --- |
| B-cell receptor-associated protein 31 (protein, UniProt P51572 1-246) MSLQWTAVATFLYAEVFVVLLLCIPFISPKRWQKIFKSRLVELLVSYGNTFFVVLIVILVLLVIDAVREIRKYDDVTEKVNLQNNPGAMEHFHMKLFRAQRNLYIAGFSLLLSFLLRRLVTLISQQATLLASNEAFKKQAESASEAAKKYMEENDQLKKGAAVDGGKLDVGNAEVKLEEENRSLKADLQKLKDELASTKQKLEKAENQVLAMRKQSEGLTKEYDRLLEEHAKLQAAVDGPMDKKEE | binds |
| Bystin (protein, UniProt Q13895 1-437) MPKFKAARGVGGQEKHAPLADQILAGNAVRAGVREKRRGRGTGEAEEEYVGPRLSRRILQQARQQQEELEAEHGTGDKPAAPRERTTRLGPRMPQDGSDDEDEEWPTLEKAATMTAAGHHAEVVVDPEDERAIEMFMNKNPPARRTLADIIMEKLTEKQTEVETVMSEVSGFPMPQLDPRVLEVYRGVREVLSKYRSGKLPKAFKIIPALSNWEQILYVTEPEAWTAAAMYQATRIFASNLKERMAQRFYNLVLLPRVRDDVAEYKRLNFHLYMALKKALFKPGAWFKGILIPLCESGTCTLREAIIVGSIITKCSIPVLHSSAAMLKIAEMEYSGANSIFLRLLLDKKYALPYRVLDALVFHFLGFRTEKRELPVLWHQCLLTLVQRYKADLATDQKEALLELLRLQPHPQLSPEIRRELQSAVPRDVEDVPITVE | binds |
| Coiled-coil domain-containing protein 8 (protein, UniProt Q9H0W5 1-538) MLQIGEDVDYLLIPREVRLAGGVWRVISKPATKEAEFRERLTQFLEEEGRTLEDVARIMEKSTPHPPQPPKKPKEPRVRRRVQQMVTPPPRLVVGTYDSSNASDSEFSDFETSRDKSRQGPRRGKKVRKMPVSYLGSKFLGSDLESEDDEELVEAFLRRQEKQPSAPPARRRVNLPVPMFEDNLGPQLSKADRWREYVSQVSWGKLKRRVKGWAPRAGPGVGEARLASTAVESAGVSSAPEGTSPGDRLGNAGDVCVPQASPRRWRPKINWASFRRRRKEQTAPTGQGADIEADQGGEAADSQREEAIADQREGAAGNQRAGAPADQGAEAADNQREEAADNQRAGAPAEEGAEAADNQREEAADNQRAEAPADQRSQGTDNHREEAADNQRAEAPADQGSEVTDNQREEAVHDQRERAPAVQGADNQRAQARAGQRAEAAHNQRAGAPGIQEAEVSAAQGTTGTAPGARARKQVKTVRFQTPGRFSWFCKRRRAFWHTPRLPTLPKRVPRAGEARNLRVLRAEARAEAEQGEQEDQL | binds |
| ATP-binding cassette sub-family D member 3 (protein, UniProt P28288 1-659) MAAFSKYLTARNSSLAGAAFLLLCLLHKRRRALGLHGKKSGKPPLQNNEKEGKKERAVVDKVFFSRLIQILKIMVPRTFCKETGYLVLIAVMLVSRTYCDVWMIQNGTLIESGIIGRSRKDFKRYLLNFIAAMPLISLVNNFLKYGLNELKLCFRVRLTKYLYEEYLQAFTYYKMGNLDNRIANPDQLLTQDVEKFCNSVVDLYSNLSKPFLDIVLYIFKLTSAIGAQGPASMMAYLVVSGLFLTRLRRPIGKMTITEQKYEGEYRYVNSRLITNSEEIAFYNGNKREKQTVHSVFRKLVEHLHNFILFRFSMGFIDSIIAKYLATVVGYLVVSRPFLDLSHPRHLKSTHSELLEDYYQSGRMLLRMSQALGRIVLAGREMTRLAGFTARITELMQVLKDLNHGKYERTMVSQQEKGIEGVQVIPLIPGAGEIIIADNIIKFDHVPLATPNGDVLIRDLNFEVRSGANVLICGPNGCGKSSLFRVLGELWPLFGGRLTKPERGKLFYVPQRPYMTLGTLRDQVIYPDGREDQKRKGISDLVLKEYLDNVQLGHILEREGGWDSVQDWMDVLSGGEKQRMAMARLFYHKPQFAILDECTSAVSVDVEGYIYSHCRKVGITLFTVSHRKSLWKHHEYYLHMDGRGNYEFKQITEDTVEFGS | binds |
| DnaJ homolog subfamily C member 11 (protein, UniProt Q9NVH1 1-559) MATALSEEELDNEDYYSLLNVRREASSEELKAAYRRLCMLYHPDKHRDPELKSQAERLFNLVHQAYEVLSDPQTRAIYDIYGKRGLEMEGWEVVERRRTPAEIREEFERLQREREERRLQQRTNPKGTISVGVDATDLFDRYDEEYEDVSGSSFPQIEINKMHISQSIEAPLTATDTAILSGSLSTQNGNGGGSINFALRRVTSAKGWGELEFGAGDLQGPLFGLKLFRNLTPRCFVTTNCALQFSSRGIRPGLTTVLARNLDKNTVGYLQWRWGIQSAMNTSIVRDTKTSHFTVALQLGIPHSFALISYQHKFQDDDQTRVKGSLKAGFFGTVVEYGAERKISRHSVLGAAVSVGVPQGVSLKVKLNRASQTYFFPIHLTDQLLPSAMFYATVGPLVVYFAMHRLIIKPYLRAQKEKELEKQRESAATDVLQKKQEAESAVRLMQESVRRIIEAEESRMGLIIVNAWYGKFVNDKSRKSEKVKVIDVTVPLQCLVKDSKLILTEASKAGLPGFYDPCVGEEKNLKVLYQFRGVLHQVMVLDSEALRIPKQSHRIDTDG | binds |

Results are given in words; binding and its absence hold for the method and conditions named. Binding seen in cells or lysates may run through a third protein. Here binding means that the protein was enriched with, or labelled near, the bait; the list need not be complete. Sequences can lack the tags named with a protein.
